Data as given in patent WO2020239014A1 (dated 2020).
These are yes or no findings as the source states them, for the method shown. Some entries that bind do so weakly or less than the wild type.

Columns and labels:
[1] = molecular target: T1, CGRPα (4013281-1000, Bachem) (human, UniProt P06881 83-119, not fully specified); assay: ELISA, coated CGRPα titrated, antibody 1 μg/mL
T1 peptide (looked up): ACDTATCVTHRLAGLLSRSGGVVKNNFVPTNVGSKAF

[2] = molecular target: T1, CGRPα (4013281-1000, Bachem); assay: BLI (Octet RED 96), α-CGRP on streptavidin biosensors

- binding [1]: binds
- binding [2]: binds
B1: CGRPM5-BA51.23-IgG2 (antibody, V domains shown)
VH: QVQLVQSGAEVKKPGASVKVSCKASGYTFTRYTMHWIRQAPGQGLEWMGYIYPSSGYTIYNQKFQGRVTMTRDTSTSTVYMELSSLRSEDTAVYYCATEGHYAGNGNYEGYWGQGTTVTVSS
VL: DIVMTQSPSSLSASVGDRVTITCRASSSISSNYLHWYQQKPGKAPKLLIYRTSNLASGVPSRFSGSGSGTDFTLTISSLQPEDFATYYCQQGSSIPFTFGQGTKLEIK
notes: Humanized BA51, IgG2; also called CGRP-BA51.23; CGRP-BA51.23-IgG2
